Test system: Rat Aortic Smooth Muscle Cells (RASMC)
Assay: RASMC cell proliferation assay (WST-1)
Assay type: cell-based
Conditions: inhibitory effect sigmoid Emax model, read-out: EC50 for inhibition of RASMC proliferation
Method: EC50 values were calculated using WinNonLin 5.0.1 using the inhibitory effect sigmoid Emax model.

## CC/C(=C(\c1ccccc1)c1ccc(OCCN(C)C)cc1)c1ccccc1 [Tamoxifen, reference compound]
  EC50: 4.03 µM

From patent US9604931B2, “Nuclear receptor binding agents” (GTx, Inc., priority 2007, dated 2017)
